Common to all, as to assay: affinity purification with mass spectrometry; whole ovaries of flies expressing GFP-tagged baits lysed in 50 mM Tris-HCl pH 7.5, 100 mM NaCl, 250 mM sucrose, 0.1% Nonidet P-40, 1 mM DTT; RNase A/T1 treated; GFP-TRAP MA beads, 1 h at 4 °C; tag alone as control; label-free LC-MS/MS (all six baits) and dimethyl labeling MS (Hrp48, Vas)
Assay [1] addresses T1, Glo-GFP (Drosophila melanogaster) (UniProt Q9VGH5).
T1 sequence: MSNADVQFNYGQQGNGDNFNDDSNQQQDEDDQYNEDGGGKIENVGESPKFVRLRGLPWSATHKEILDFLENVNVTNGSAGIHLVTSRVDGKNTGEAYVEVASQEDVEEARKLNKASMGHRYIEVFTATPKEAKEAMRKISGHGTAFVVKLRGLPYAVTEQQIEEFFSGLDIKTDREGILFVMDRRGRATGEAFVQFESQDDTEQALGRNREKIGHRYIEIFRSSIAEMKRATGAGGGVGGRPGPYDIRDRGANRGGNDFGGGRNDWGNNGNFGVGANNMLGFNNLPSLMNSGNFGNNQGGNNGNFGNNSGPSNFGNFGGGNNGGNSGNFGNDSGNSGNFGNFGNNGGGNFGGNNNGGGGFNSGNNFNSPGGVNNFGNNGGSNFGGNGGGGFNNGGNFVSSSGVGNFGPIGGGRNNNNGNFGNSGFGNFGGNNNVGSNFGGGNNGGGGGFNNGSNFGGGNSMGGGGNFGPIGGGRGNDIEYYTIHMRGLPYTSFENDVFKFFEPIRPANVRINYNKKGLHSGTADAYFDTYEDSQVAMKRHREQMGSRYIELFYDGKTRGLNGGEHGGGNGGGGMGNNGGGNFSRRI

Assay [2] has as its target T2, Hrp48-GFP (Drosophila melanogaster) (UniProt P48809).
T2 sequence: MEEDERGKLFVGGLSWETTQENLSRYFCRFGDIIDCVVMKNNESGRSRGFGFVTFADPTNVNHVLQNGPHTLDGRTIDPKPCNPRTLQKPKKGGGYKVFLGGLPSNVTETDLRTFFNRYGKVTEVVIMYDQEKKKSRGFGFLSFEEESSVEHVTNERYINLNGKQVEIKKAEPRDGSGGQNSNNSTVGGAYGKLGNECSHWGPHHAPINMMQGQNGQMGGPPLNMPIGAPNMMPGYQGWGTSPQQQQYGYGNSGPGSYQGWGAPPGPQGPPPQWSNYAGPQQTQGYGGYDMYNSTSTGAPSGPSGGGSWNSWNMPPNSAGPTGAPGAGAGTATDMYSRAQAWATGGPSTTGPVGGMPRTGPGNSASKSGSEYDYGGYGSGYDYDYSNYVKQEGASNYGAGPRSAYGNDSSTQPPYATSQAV

Assay [3] concerns the target T3, Vas-GFP (Drosophila melanogaster) (UniProt P09052).
T3 sequence: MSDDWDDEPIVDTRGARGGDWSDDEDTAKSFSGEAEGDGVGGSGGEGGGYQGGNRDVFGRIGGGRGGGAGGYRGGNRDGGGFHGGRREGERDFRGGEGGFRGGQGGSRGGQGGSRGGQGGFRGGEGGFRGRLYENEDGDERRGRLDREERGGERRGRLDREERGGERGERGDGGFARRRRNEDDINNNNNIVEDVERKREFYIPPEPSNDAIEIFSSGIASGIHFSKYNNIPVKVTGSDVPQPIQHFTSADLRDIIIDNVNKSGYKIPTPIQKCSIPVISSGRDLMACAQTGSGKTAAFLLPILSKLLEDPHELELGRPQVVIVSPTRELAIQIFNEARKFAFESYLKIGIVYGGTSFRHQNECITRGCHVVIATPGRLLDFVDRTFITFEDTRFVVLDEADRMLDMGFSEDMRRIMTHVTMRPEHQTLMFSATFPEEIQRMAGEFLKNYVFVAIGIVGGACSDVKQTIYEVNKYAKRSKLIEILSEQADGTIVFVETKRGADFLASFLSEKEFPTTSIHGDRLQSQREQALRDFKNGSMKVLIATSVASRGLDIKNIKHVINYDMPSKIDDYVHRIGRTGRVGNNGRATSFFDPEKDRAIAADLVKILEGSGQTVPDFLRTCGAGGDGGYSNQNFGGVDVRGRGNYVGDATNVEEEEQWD

No constants are given. Whether binding was seen depends on the method and setting. In cells and extracts the contact can be indirect. Here binding means that the protein was enriched with, or labelled near, the bait; the list need not be complete. Tags and fused reporters may be left off the sequences shown.

B1: Hrp48 (endogenous) (protein, UniProt P48809 1-421)
chain: T2 sequence
In the case of B1, the binding result in assay [1] is “binds weakly”.

B2: Ovarian Tumor (protein, UniProt P10383 1-853)
chain: MDMQVQRPITSGSRQAPDPYDQYLESRGLYRKHTARDASSLFRVIAEQMYDTQMLHYEIRLECVRFMTLKRRIFEKEIPGDFDSYMQDMSKPKTYGTMTELRAMSCLYRRNVILYEPYNMGTSVVFNRRYAENFRVFFNNENHFDSVYDVEYIERAAICQSIAFKLLYQKLFKLPDVSFAVEIMLHPHTFNWDRFNVEFDDKGYMVRIHCTDGRVFKLDLPGDTNCILENYKLCNFHSTNGNQSINARKGGRLEIKNQEERKASGSSGHEPNDLLPMCPNRLESCVRQLLDDGISPFPYKVAKSMDPYMYRNIEFDCWNDMRKEAKLYNVYINDYNFKVGAKCKVELPNETEMYTCHVQNISKDKNYCHVFVERIGKEIVVPYESLHPLPPDEYRPWSLPFRYHRQMPRLPLPKYAGKANKSSKWKKNKLFEMDQYFEHSKCDLMPYMPVDNCYQGVHIQDDEQRDHNDPEQNDQNPTTEQRDREEPQAQKQHQRTKASRVQPQNSSSSQNQEVSGSAAPPPTQYMNYVPMIPSRPGHLPPPWPASPMAIAEEFPFPISGTPHPPPTEGCVYMPFGGYGPPPPGAVALSGPHPFMPLPSPPLNVTGIGEPRRSLHPNGEDLPVDMVTLRYFYNMGVDLHWRMSHHTPPDELGMFGYHQQNNTDQQAGRTVVIGATEDNLTAVESTPPPSPEVANATEQSPLEKSAYAKRNLNSVKVRGKRPEQLQDIKDSLGPAAFLPTPTPSPSSNGSQFSFYTTPSPHHHLITPPRLLQPPPPPPIFYHKAGPPQLGGAAQGQTPYAWGMPAPVVSPYEVINNYNMDPSAQPQQQQPATLQPAPLSVQSQPAAVYAATRHH
B2: in assay [2], the binding entry is given as “binds”.

B3: Half pint (endogenous) (protein, UniProt Q8T6B9 1-637)
chain: MGSNDRASRSPRSDDQREISDMPATKRTRSDSGKSTDSKIPYLSQPLYDLKQTGDVKFGPGTRSALLGLLGGALPKLSSEQHDLVSKAKKYAMEQSIKMVLMKQTLAHQQQQLATQRTQVQRQQALALMCRVYVGSISFELKEDTIRVAFTPFGPIKSINMSWDPITQKHKGFAFVEYEIPEGAQLALEQMNGALMGGRNIKVGRPSNMPQAQQVIDEVQEEAKSFNRIYVASIHPDLSEEDIKSVFEAFGPILYCKLAQGTSLHTHKGYGFIEYANKQAMDEAIASMNLFDLGGQLLRVGRSITPPNALACPTTNSTMPTAAAVAAAAATAKIQALDAVASNAVLGLSQNTPVMAAGAVVTKVGAMPVVSAATSAAALHPALAQAAPALLPPGIFQAPTPVAPSLLGVPAGLQPLQAVVPTLPPPALLATPTLPMTVGGVGVGLVPTVATLAGAEASKGAAAAAALSAAANNAAVTAANLSENIKKAHEKQQEELQKKLMDEGDVQTLQQQENMSIKGQSARQLVMQRLMRPVDSRVIILRNMVGPEDVDETLQEEIQEECSKFGTVSRVIIFNEKQTENEDDDEAEIIVKIFVEFSAGAEAMRGKEALDGRFFGGRRVVAELYDQGIFDQGDLSG
On to B3, for which the binding entry in assay [1] is recorded as “binds weakly”.

B4: Squid (protein, UniProt Q08473 1-344)
chain: MAENKQVDTEINGEDFTKDVTADGPGSENGDAGAAGSTNGSSDNQSAASGQRDDDRKLFVGGLSWETTEKELRDHFGKYGEIESINVKTDPQTGRSRGFAFIVFTNTEAIDKVSAADEHIINSKKVDPKKAKARHGKIFVGGLTTEISDEEIKTYFGQFGNIVEVEMPFDKQKSQRKGFCFITFDSEQVVTDLLKTPKQKIAGKEVDVKRATPKPENQMMGGMRGGPRGGMRGGRGGYGGRGGYNNQWDGQGSYGGYGGGYGGYGAGGYGDYYAGGYYNGYDYGYDGYGYGGGFEGNGYGGGGGGNMGGGRGGPRGGGGPKGGGGFNGGKQRGGGGRQQRHQPY
B4: the binding result in assay [2] is “binds”.

B5: F-box synaptic protein (protein, UniProt Q9V6L9 1-255)
chain: MVDPVAALCNYNVLEVIFSYLELDDLSHCSQVCKSWYHFLNDENSDVWRWHCLNKLPKESLKSDLLASVSTYKTKLRAYFHAWSPNDCSRNVYIKPNGFTLHRNPVAQSTDAARGKIGFRHGRHTWEVIWEGPLGTVAVIGISTKEAALQCHGYVALLGSDDQSWGWNLVENHLLHNGDMQGSYPLLNNAPKYQVGERIRVILDCEDNTLSFEKNYEFLGVAFRGLPDKKLYPTVSAVYGNTEVSMVYLGTPLDG
Regarding B5, the binding entry in assay [3] was “binds”.

B6: Cup (protein, UniProt Q9VMA3 1-1117)
chain: MQMAEAEQENGAGALKIATNAGATDRPAHQQLPLPVEDQQDEVLTPAEKGKFEYPPPPPPPTPVQAPLATKATALNASQEHDDDEANSEKWEDPCAPPPPPPLPTSAFLATGLGYLKLPAFKLKDALEKAITKLEANKRTLKASPESSRSIKNKNVVALEMLPRRSNPETIGDGSMLASTSTAVMLQTKKPAVIVEMERRCKIINLLAKQNQILESISGEAIPMHGPSKHLHEDEGLTLQVLSARASTPYTQPSSMLSCTAVSCDLEHDSPRKQVASKEAVPEQQSSQVQQKRPPSTGIHKPGSLRAPKAVRPTTAPVVSSKPVKSYTRSRLMDIRNGMFNALMHRSKESFVMPRIATCDDIELEGRLRRMNIWRTSDGTRFRTRSTTANLNMNNNNNNECMPAFFKNKNKPNLISDESIIQSQPPQPQTEFQDPAIVNQRRIGSGRLNHSKWGYNDEDYHSYHNGKSQHMEEVNSKNSKNMTVLQFFDNGEISSQPQRRPNTPVMGMSINRSENDTLHSNESSEDLSRANENYVKRVMSGFLVVSKPKSRDVEDRHHRRYRNQNEEPEWFSCGPTSRLDTIELCGFDEDEEKMLKEGNKNHGLGETERETSKQKMDHKYKWTHAEPMGRSKYMPKHDTNNNHNVENMNNVMATEHQQQKEEKRPGSGRSFQFDKFNQSQQNYESSSYVNHQQPPQTQPQQMQQQSNTNTNNSKFMSFFANEGNSSSSSLNEFFKQAINQGHGNNPEQPKSLGHIGQMPSVDQLEAKWRRNSLNNVGETANKQTDNFQKLIGSLSSAKPQSQAVGYDAISNFIMQQQQYQQQQQKQHLIIQQQQQHTAFLASLQLKAILGRADTQLLLLRLTKGEISKHGLLVQLANPRLTDMDREAITAVLQFTNTQQQQQQHKQQLDMLSSTVIASQLQNLHNLAIVQQTLAARQQPQHNPQTQAPHQLSQEDLQAHANVIMRNAVMKRKIEEQTSKLINGGAKHQAQQQYLNRGQQRQARPDANSNALLHALISGGGNNHASGYPMNGQPQKHHSNLRFGDNQNFQSFESNQPHFATQYKQQYQQSQQQHPHQQPQQLNSLHQNNAGAVNSFNKAQMQAQSAISMLPNSGDEFH
With B6, the binding entry in assay [2] was “binds”.

B7: Gustavus (protein, UniProt A1Z6E0 1-279)
chain: MGQKISGGVKTVSRNDSQSTFKPIIPRELQADFVKPARIDILLDMPPASRDLQLKHSWNSEDRSLNIFVKEDDKLTFHRHPVAQSTDCIRGKVGLTKGLHIWEIYWPTRQRGTHAVVGVCTADAPLHSVGYQSLVGSTEQSWGWDLGRNKLYHDSKNCAGVTYPAILKNDEAFLVPDKFLVALDMDEGTLSFIVDQQYLGIAFRGLRGKKLYPIVSAVWGHCEITMRYIGGLDPEPLPLMDLCRRTIRQKIGRTNLEEHIQQLQLPLSMKTYLLYKNRR
For the molecule B7, the binding entry in assay [3] is “binds”.

These data come from article PMC8143644.
